Data source: PubChem BioAssay AID493246 (Drosophila RNAi Screening Center, 2011)
In all, the deposit lists about 21,000 reagents; below is an unselected part of those that have a named target and a result. Of all reagents, 429 (2%) are marked active. 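Values are raw and not normalised between plates; calls rest on per-plate z-scores that were not deposited.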 A number with no mark means an inactive call. A plus sign joins genes that one reagent is predicted to hit. Not stated in the record: the amount of reagent, the time to read-out.

Test: 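Genome-wide search for dsRNAs that reduce cell number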 (primary screen)
System: Drosophila Kc and S2R+ cells
Knock-down reagent: long dsRNA against Drosophila genes
Detection: 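Raw, unnormalised count of remaining cells in each well; per-plate z-scores of cell number underlie the calls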
Scale: Kc cell number and S2R+ cell number: higher = more cells remaining
Call rule: 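Active when the per-plate z-score of cell number is 3 or more in the direction of fewer cells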

Gene	dsRNA	Kc cell number, rep 1	Kc cell number, rep 2	S2R+ cell number, rep 1	S2R+ cell number, rep 2
Rad17	DRSC16811	1.33e6	1.42e6	1.17e6	1.24e6
CG41520	DRSC21102	1.22e6	1.34e6	1.06e6	1.12e6
CG41520	DRSC21103	1.46e6	1.49e6	1.04e6	1.16e6
RhoGAP18B (Rho GTPase activating protein at 18B)	DRSC19763	1.37e6	1.43e6	9.61e5	1.03e6
RhoGAP18B (Rho GTPase activating protein at 18B)	DRSC20047	1.34e6	1.39e6	8.01e5	9.08e5
RhoGAP18B (Rho GTPase activating protein at 18B)	DRSC20048	1.36e6	1.38e6	9.94e5	1.06e6
RhoGAP18B (Rho GTPase activating protein at 18B)	DRSC20049	1.41e6	1.44e6	9.05e5	1.04e6
CG8065	DRSC10959	1.43e6	1.35e6	1.33e6	1.36e6
CG14082	DRSC10086	1.49e6	1.59e6	1.27e6	1.37e6
Six4	DRSC11881	1.42e6	1.78e6	1.21e6	1.29e6
Ugt35A1 (UDP-glycosyltransferase family 35 member A1)	DRSC16892	1.60e6	1.66e6	1.43e6	1.53e6
Cc2d2a (Coiled-coil and C2 domain containing 2A)	DRSC06750	1.53e6	1.57e6	1.15e6	1.26e6
fun (retired record)	DRSC12300	1.44e6	1.47e6	1.17e6	1.22e6
Atg14 (Autophagy-related 14)	DRSC14421	5.24e5		6.39e5	
CG32081	DRSC09861	1.84e6	1.69e6	1.49e6	1.58e6
PQBP1 (Poly-glutamine tract binding protein 1)	DRSC14393	1.15e6	1.59e6	1.17e6	1.25e6

Records above whose gene name starts with C or c:
Gene	dsRNA	Kc cell number, rep 1	Kc cell number, rep 2	S2R+ cell number, rep 1	S2R+ cell number, rep 2
CG41520	DRSC21102	1.22e6	1.34e6	1.06e6	1.12e6
CG41520	DRSC21103	1.46e6	1.49e6	1.04e6	1.16e6
CG8065	DRSC10959	1.43e6	1.35e6	1.33e6	1.36e6
CG14082	DRSC10086	1.49e6	1.59e6	1.27e6	1.37e6
Cc2d2a (Coiled-coil and C2 domain containing 2A)	DRSC06750	1.53e6	1.57e6	1.15e6	1.26e6
CG32081	DRSC09861	1.84e6	1.69e6	1.49e6	1.58e6

Next records:
Gene	dsRNA	Kc cell number, rep 1	Kc cell number, rep 2	S2R+ cell number, rep 1	S2R+ cell number, rep 2
Sf3b5 (Splicing factor 3b subunit 5)	DRSC14460	1.21e6	1.38e6	8.54e5	1.04e6
CG2926	DRSC12321	1.65e6	1.67e6	1.02e6	1.08e6
Pitslre	DRSC11874	1.34e6	1.46e6	8.18e5	9.08e5
Grip71	DRSC02042	1.59e6	1.76e6	1.30e6	3.82e5
CG32706 + CG6999	DRSC18412	1.62e6	1.59e6	1.02e6	1.15e6
AOX2 (Aldehyde oxidase 2)	DRSC15338	1.45e6	1.44e6	1.06e6	1.19e6
Eig71Ef (Ecdysone-induced gene 71Ef)	DRSC11153	1.53e6	1.55e6	1.16e6	1.39e6
Tab2 (TAK1-associated binding protein 2)	DRSC07481	1.56e6	1.58e6	1.15e6	1.19e6
